In the supplement of paper PMC12578635 one finds intracellular bacterial bioluminescence data, which are given here for 89 compounds.

This is one part of the list. No stated cut-off is given here; in the data, active = 150% or more and inactive = the rest. Most values come without repeats; read them as rough.

In this test the test system is Staphylococcus aureus JE2-lux inside RAW 264.7 macrophages. The experiment in a line: intracellular bacterial bioluminescence relative to DMSO vehicle; higher = higher intracellular bacterial metabolic activity. To be noted: 10 µM; treatment time 4 h; gentamicin 50 µg/ml.
Consider `CCn1cc(C(=O)N2CCC(n3c(C)nc4sc(C)c(C)c4c3=O)CC2)c(C)n1`, for which the intracellular bacterial bioluminescence is inactive: 97.5%. The figure for `C=CCOc1ccccc1NC(=O)c1cc2ncc(C(C)=O)c(C)n2n1` is inactive: 127%; for `COC(=O)c1ccc(NC(=O)CSc2nc3c([nH]2)c(=O)n(C)c(=O)n3C)cc1` it is inactive: 101%; for `CCc1ccc(NS(=O)(=O)c2[nH]nc(C)c2C(=O)n2nc(C)cc2C)cc1` it is inactive: 112%. As to `O=C(Nn1cnc2c(cnn2-c2cccc(Cl)c2)c1=O)c1ccccc1C(F)(F)F`, the intracellular bacterial bioluminescence was inactive: 117%. Then `C=CCOc1ccccc1NC(=O)c1cnc(C(C)(C)C)nc1`, with inactive: 90.8%. The figure for `Nc1c(C(=O)Nc2ccc(Oc3ccccc3)cc2)sc2nc3c(cc12)C(=O)CCC3` is inactive: 107%; for `COc1ccc(C2C(C#N)=C(N)SC3C(=O)N(c4ccc(C)cc4)C(=O)C32)cc1` (centres undefined) it is inactive: 116%.

As for `Cc1csc(SCc2cc(=O)c(OC(=O)c3cc4ccccc4o3)co2)n1`, the intracellular bacterial bioluminescence is inactive: 95.1%. Consider `COc1cccc2cc(C(=O)C3=C(O)C(=O)N(CCCN(C)C)C3c3cccnc3)oc12` (centres undefined), for which the intracellular bacterial bioluminescence is inactive: 92.9%.

Take `Cc1c(C)n2c(SCC(=O)N3CCc4ccccc43)nnc2[nH]c1=O`: the intracellular bacterial bioluminescence is inactive: 104%.

On to `COCCCNc1oc(-c2ccc([N+](=O)[O-])cc2)nc1C#N`, for which the intracellular bacterial bioluminescence is inactive: 105%.

For the compound `COc1ccc(CN(Cc2nc3ccccc3c(=O)[nH]2)C(=O)c2ccco2)cc1`, the intracellular bacterial bioluminescence was inactive: 76.1%. Then `CCC(C(=O)N1CCN(C)CC1)n1cnc2c(sc3ncccc32)c1=O` (centres undefined), with inactive: 79%; and `O=c1c2ccccc2nc2c(-c3nc(-c4ccc5c(c4)OCO5)no3)cccn12`, with inactive: 114%; and `COc1ccc2c(c1)CCc1c(-c3nc(-c4ccc(Cl)cc4)no3)n[nH]c1-2`, with inactive: 133%. Then `Cc1oc(-c2ccno2)cc1S(=O)(=O)N1CCCc2ccccc21`, with inactive: 72.5%; and `N#Cc1c(NC(=O)CC(=O)CSc2ncnc3sc4c(c23)CCC4)sc2c1CCCC2`, with inactive: 94.3%; and `O=S(=O)(NCc1ccc(-c2nn3cnnc3s2)cc1)c1ccccc1`, with inactive: 93.6%.

In the case of `CN1C(=O)C2ON(c3ccccc3)C(c3ccccc3)C2C1=O` (centres undefined), the intracellular bacterial bioluminescence was inactive: 112%. The figure for `COc1ccc(Cn2c(C)nc3cc(NC(=O)Nc4ccc(Cl)cc4)c(C)nc32)cc1` is inactive: 64.1%. On to `N#Cc1c(/N=C/c2ccccc2O)oc(-c2ccco2)c1-c1ccco1`, for which the intracellular bacterial bioluminescence was inactive: 93.5%. Then `COC(=O)C1=C(NC(=O)COc2ccc3ccccc3c2)CCS1`, with inactive: 88.9%; and `COc1ccc(OC)c2[nH]c(=O)c(CCNC(=O)Cc3cccc(C)c3)cc12`, with inactive: 66.1%; and `O=C(Nc1nc2c(s1)CSc1ccccc1-2)c1coc2ccccc2c1=O`, with inactive: 125%.

For `COc1ccc(-c2[nH]c3ccccc3c2SCCNC(C)=O)cc1`, the intracellular bacterial bioluminescence was inactive: 80.8%. In the case of `Cc1ccc(C)c(CSc2nc(=O)n3cc(Cl)ccc3n2)c1`, the intracellular bacterial bioluminescence is inactive: 67.6%. The figure for `CCC(=O)Nc1ccc2nc(SCc3cc(=O)n4nc(-c5ccccc5)[nH]c4n3)sc2c1` is inactive: 122%; for `NC(=O)CC1Nc2cccc3cccc(c23)NC1=O` (centres undefined) it is inactive: 16.3%. The figure for `CCc1cc2c(N(CC)c3ccccc3)ncnc2s1` is inactive: 69.9%. `O=C(CCCS(=O)(=O)c1ccccc1)Nc1nc2c(cc3c4c(cccc42)CC3)s1`: the intracellular bacterial bioluminescence is inactive: 75.5%. The figure for `O=C(Nn1cnc2c(cnn2-c2ccccc2)c1=O)c1ccc(F)c(F)c1` is inactive: 149%; for `Cc1ccc(NS(=O)(=O)c2cc(-c3cc(C(F)(F)F)on3)cs2)c(Br)c1` it is inactive: 64.8%; for `Cc1ccc(CNC(=O)c2cc(-c3ccccn3)[nH]n2)cc1` it is inactive: 2.07%. Regarding `CCOc1ccc(NC=C(S(=O)(=O)c2ccccc2)S(=O)(=O)c2ccccc2)c([N+](=O)[O-])c1`, the intracellular bacterial bioluminescence was inactive: 92%. For the compound `Cc1ccc(NS(=O)(=O)c2ccc3[nH]c(=O)[nH]c3c2)cc1C`, the intracellular bacterial bioluminescence was inactive: 97.9%. Then `COc1ccc(/C=C2\SC(=S)N(CCC(=O)Nc3ccc(C(=O)O)c(O)c3)C2=O)cc1OC`, with inactive: 118%; and `Nc1ccc(Cc2ccc(N)c([N+](=O)[O-])c2)cc1[N+](=O)[O-]`, with inactive: 70%. The figure for `CC(C(=O)N1CCCC1)C1CCN(C(=O)c2cc3cc(Cl)ccc3[nH]2)CC1` (centres undefined) is inactive: 85.2%; for `CC(=O)C1C(c2ccc(OC(F)F)cc2)NC(=O)NC1(O)C(F)(F)F` (centres undefined) it is inactive: 95.9%; for `Cc1c(NC(=O)c2cc(-c3ccccc3)on2)c(=O)n(-c2ccccc2)n1C` it is inactive: 90.4%. With `Cn1c(=O)[nH]c2cc(-c3noc(CNS(=O)(=O)c4ccccc4)n3)ccc21`, the intracellular bacterial bioluminescence was inactive: 118%. The figure for `CCOC(=O)N1CCN(C(=O)CSc2nc3c(c(=O)n2-c2cccc(OC)c2)SCC3)CC1` is inactive: 60.9%; for `COc1ccc2sc(N(Cc3ccccn3)C(=O)/C=C/c3cccs3)nc2c1` it is inactive: 111%.

`O=C(Nc1cnc(N2CCN(c3ccccn3)CC2)c(C(=O)O)c1)c1ccc(F)cc1`: the intracellular bacterial bioluminescence is inactive: 92.9%. Then `Cc1cc(=O)[nH]c2c(C)cc(S(=O)(=O)NC3CCCCC3)cc12`, with inactive: 133%. As for `O=C(CN1C(=O)c2ccccc2S1(=O)=O)Nc1nccs1`, the intracellular bacterial bioluminescence is inactive: 112%. With `CCN1c2ncccc2C(=O)NC12CCN(C(=O)c1ccc3c(c1)OCCO3)CC2`, the intracellular bacterial bioluminescence is inactive: 69.1%. `O=C(CSc1nc(=O)n(CC2CCCO2)c2c1CCCC2)Nc1nc2ccccc2s1` (centres undefined): the intracellular bacterial bioluminescence was inactive: 128%. The figure for `O=C(NNc1nc2cc3c(cc2s1)OCCO3)c1ccccc1` is inactive: 68.4%. For the compound `Cc1cccc(NC(=O)CSc2ncc(S(=O)(=O)c3ccc(C)c(C)c3)c(N)n2)c1`, the intracellular bacterial bioluminescence was inactive: 98.7%. In the case of `Cn1c(=O)c2c(SCC(=O)NCc3ccc4c(c3)OCO4)ccnc2n(C)c1=O`, the intracellular bacterial bioluminescence is inactive: 114%. With `Brc1cccc2sc(N3CCc4ccccc4C3)nc12`, the intracellular bacterial bioluminescence is inactive: 98%. Then `Cc1ccnc(N2CCCC(C(=O)Nc3ccccc3-c3ccccc3)C2)n1` (centres undefined), with inactive: 96.2%; and `CCOc1ccc(-c2noc(Cn3ncn4nc(-c5ccc(OC)cc5)cc4c3=O)n2)cc1OC`, with inactive: 125%; and `Cc1ccc(-c2c3c(nc4sc(C(=O)Nc5cccc(F)c5)c(N)c24)CCCC3)o1`, with inactive: 95.2%.

For `Cc1cccc(S(=O)(=O)NCCOc2ccc(-c3ccc(F)cc3)nn2)c1`, the intracellular bacterial bioluminescence was inactive: 102%. The figure for `CCN1C(=O)c2cccc3c(NC(=O)CN4C(=O)c5ccccc5C4=O)ccc1c23` is inactive: 36.5%. Then `Cc1ccc(-n2ncc3c(SCC(=O)Nc4nnc(C)s4)ncnc32)c(C)c1`, with inactive: 97.1%. Then `Cc1cc(C)cc(NS(=O)(=O)c2c[nH]c(=O)[nH]c2=O)c1`, with inactive: 125%; and `CCCN1CCN(c2ncnc3sc(C(=O)NCc4ccc5c(c4)OCO5)c(C)c23)CC1`, with inactive: 116%. As to `COc1ccc(C(=O)Nc2ccc3nc(N4CC(C)CC(C)C4)cc(C(=O)O)c3c2)cc1` (centres undefined), the intracellular bacterial bioluminescence is inactive: 91.1%. The figure for `CSC1=C(C#N)C2(CCCCC2)C(c2nc(-c3ccc(C)cc3)cs2)C(=N)N1` (centres undefined) is inactive: 83.2%. The figure for `Cn1cnc(S(=O)(=O)N2CCC(c3nnc(C(=O)Nc4ccccc4)s3)CC2)c1` is inactive: 89.6%; for `O=C(CCCC1=Nc2ccccc2S(=O)(=O)N1)OCc1ccc(F)cc1` it is inactive: 87.8%; for `O=C(CSc1nc(=O)[nH]c2c1CCC2)N1CCCC1` it is inactive: 109%. Regarding `O=c1[nH]cc(S(=O)(=O)N2CCN(Cc3ccccc3)CC2)c(=O)[nH]1`, the intracellular bacterial bioluminescence is inactive: 106%. For `CCOC(=O)c1cnc(SCC(=O)NNC(C)=O)nc1N`, the intracellular bacterial bioluminescence is inactive: 108%.

Consider `Cc1ccc(-c2csc(-c3cccn3CC(=O)NCc3cccc(Br)c3)n2)cc1`, for which the intracellular bacterial bioluminescence was inactive: 91.7%.

Regarding `COc1cc(CSc2nc(=O)n3cc(C)ccc3n2)cc(OC)c1`, the intracellular bacterial bioluminescence is inactive: 37.7%. In the case of `COc1cccc2c(=O)n(CC(=O)NCc3ccc(F)cc3)ccc12`, the intracellular bacterial bioluminescence was inactive: 101%. Then `C=CCn1/c(=N/C(=O)CN2C(=O)CCC2=O)sc2cc(C(=O)OC)ccc21`, with inactive: 60.7%. Then `COc1ccc(C2CC(c3cccs3)=NN2C(=O)Cn2cnc3c(cnn3CCO)c2=O)cc1` (centres undefined), with inactive: 89.2%; and `CCN(C(=O)CCc1nc(-c2nn(-c3ccc(Cl)cc3)c(=O)n(C)c2=O)no1)c1ccccc1C`, with inactive: 68.6%; and `Nc1ncnc(N2CCc3ccccc32)c1[N+](=O)[O-]`, with inactive: 95.5%. As to `COc1ccc(-c2nsc3c(SCC(=O)NCc4cccs4)ncnc23)cc1`, the intracellular bacterial bioluminescence is inactive: 125%. Then `CCOc1ccc(Nc2nc3c(C)cccn3c(=O)c2C=O)cc1`, with inactive: 110%; and `CCS(=O)(=O)Nc1cccc(C(=O)CC2(O)C(=O)Nc3ccc(Br)cc32)c1` (centres undefined), with inactive: 103%; and `Cn1ccnc1CNS(=O)(=O)c1ccc2c(c1)c(=O)n(C)c(=O)n2C`, with inactive: 96.8%. The figure for `Cc1ccc(C(=O)N2CCC(O)CC2)c(N2CCN(C(=O)c3ccco3)CC2)n1` is inactive: 115%; for `COc1cccc(NC(=O)N(Cc2cc3cccc(C)c3nc2Cl)C2CCCCC2)c1` it is inactive: 111%; for `Cc1n[nH]c2c1C1(C(=O)Nc3ccccc31)C(C#N)=C(N)O2` (centres undefined) it is inactive: 101%. The figure for `CCc1cccc(C)c1NC(=O)C1CCCN1C(=O)Nc1ccc(C)cc1` (centres undefined) is inactive: 98.5%; for `Cc1nc2c(ccc3nc(NC(=O)c4ccccc4I)sc32)s1` it is inactive: 117%; for `CNC(=O)c1ccsc1NC(=O)c1ccc(S(=O)(=O)N(C)C)cc1` it is inactive: 78.2%. In the case of `Nc1ncnc(Sc2ccc(Cl)cc2)c1[N+](=O)[O-]`, the intracellular bacterial bioluminescence was inactive: 54.7%. With `Cc1ccc(S(=O)(=O)c2nc(/C(C#N)=C\c3ccccc3)sc2Cl)cc1`, the intracellular bacterial bioluminescence was inactive: 80.9%. Consider `Cc1ccc(C)c2[nH]c(=O)c(CCNC(=O)c3ccc([N+](=O)[O-])cc3)cc12`, for which the intracellular bacterial bioluminescence was inactive: 95.4%. The figure for `COC(=O)c1ccc(C(=O)Nc2ccc3nc(SC)sc3c2)cc1` is inactive: 88.5%.
